# PubChem BioAssay AID1508588 | Peter MacCallum Cancer Centre – 2020
# Assay: 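Which gene losses make BRAF-mutant melanoma cells more responsive to vemurafenib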 (primary screen)
# Cell system: human WM266.4 melanoma cells (BRAF V600 mutant)
# Knock-down reagent: siRNA pool against human genes, 40 nM
# Duration: 96 h from transfection to read-out
# Conditions: vemurafenib 300 nM (about IC25), added 48 h after transfection, for 48 h; comparison arm got DMSO vehicle only
# Detection: 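Ratios to non-targeting siRNA for cell gain, counted as DAPI nuclei after minus before drug and averaged over two replicates, and for absorbance-read medium lactate per cell; both binned into fold-change classes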
# Scale: cell gain with vemurafenib: higher = more cell gain than with non-targeting siRNA; lactate per cell with vemurafenib: higher = more lactate made per cell
# Rule for the call: 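Enhancement is called by pairing each knock-down's vehicle-arm and drug-arm fold-change classes for viability or glycolysis; which class combinations qualify is not given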
# Meaning of the calls: active = enhances vemurafenib effect; inactive = no enhancement seen
# This is a random part of about 18,000 reagents tested. 790 of all reagents (4.4%) were called active. 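Calls rest on a combination of fold-change classes in drug and vehicle arms, not all shown here.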 No sequences are given here.
gene knocked down,cell gain with vemurafenib,lactate per cell with vemurafenib,call
THUMPD2 (GeneID 80745),0.54,1.09,inactive
SGK2 (GeneID 10110),0.92,1.32,inactive
CYSLTR1 (GeneID 10800),1.13,1,inactive
OPA1 (GeneID 4976),0.22,1.09,inactive
PPP1R13L (GeneID 10848),0.53,1.16,inactive
POLM (GeneID 27434),0.7,1.04,inactive
PEX11A (GeneID 8800),0.53,1,inactive
ZNF616 (GeneID 90317),0.79,0.79,inactive
HMG20B (GeneID 10362),0.68,1.21,inactive
CEP164 (GeneID 22897),0.48,0.67,inactive
LBR (GeneID 3930),0.56,1.54,inactive
EIF1AD (GeneID 84285),0.76,1.17,inactive
NDUFAF7 (GeneID 55471),0.84,1.04,inactive
BTNL9 (GeneID 153579),0.94,0.78,inactive
SUSD3 (GeneID 203328),0.44,0.92,inactive
KRT31 (GeneID 3881),0.33,1.8,inactive
EXOC3L2 (GeneID 90332),0.63,1.21,inactive
SPTSSB (GeneID 165679),0.63,1.29,inactive
SOWAHB (GeneID 345079),0.29,1.72,inactive
C10orf62 (GeneID 414157),0.35,1.27,inactive
STOM (GeneID 2040),0.69,1.21,inactive
WDR49 (GeneID 151790),0.39,0.94,inactive
TIGD1 (GeneID 200765),0.88,0.49,active
PRPF6 (GeneID 24148),0.14,1.86,inactive
SLC4A2 (GeneID 6522),0.62,0.96,inactive
AHSG (GeneID 197),0.78,1,inactive
HSPA2 (GeneID 3306),0.35,0.56,inactive
ETV4 (GeneID 2118),0.52,0.97,inactive
MORN1 (GeneID 79906),0.37,1.83,inactive
NANP (GeneID 140838),0.17,1.08,inactive
CAV2 (GeneID 858),0.28,2.2,inactive
SRMS (GeneID 6725),0.05,1.12,inactive
TMEM256 (GeneID 254863),0.74,1.27,inactive
ZNF585B (GeneID 92285),-0.05,-0.31,active
OR5H2 (GeneID 79310),0.85,0.6,inactive
ABHD1 (GeneID 84696),0.87,0.96,inactive
ARHGEF19 (GeneID 128272),0.65,0.72,inactive
ZNF74 (GeneID 7625),0.89,0.96,inactive
PAGE5 (GeneID 90737),1.12,1.66,inactive
SPRR4 (GeneID 163778),0.48,0.66,inactive
LMNB2 (GeneID 84823),1.12,1.33,inactive
CRYL1 (GeneID 51084),0.27,1.73,inactive
NDP (GeneID 4693),0.13,0.97,inactive
SLC25A4 (GeneID 291),0.42,0.48,inactive
MINDY3 (GeneID 80013),0.78,0.68,inactive
DGKH (GeneID 160851),0.66,0.4,inactive
PSMC5 (GeneID 5705),-0.03,3.37,inactive
C19orf47 (GeneID 126526),0.18,0.42,active
DAZ2 (GeneID 57055),0.35,1.36,inactive
HSF1 (GeneID 3297),0.22,0.14,active
POTEB3 (GeneID 102724631),0.77,1.02,inactive
DDX52 (GeneID 11056),0.7,0.7,inactive
LDOC1 (GeneID 23641),0.52,0.92,inactive
SUN2 (GeneID 25777),0.76,0.66,inactive
TPH2 (GeneID 121278),0.65,1.08,inactive
PAX8 (GeneID 7849),0.1,3.29,inactive
C2orf69 (GeneID 205327),0.32,1.64,inactive
CTNNB1 (GeneID 1499),0.73,1.1,inactive
ZXDA (GeneID 7789),0.69,0.84,inactive

Entries above whose target name starts with M or m (2):
gene knocked down,cell gain with vemurafenib,lactate per cell with vemurafenib,call
MORN1 (GeneID 79906),0.37,1.83,inactive
MINDY3 (GeneID 80013),0.78,0.68,inactive

Additional entries:
gene knocked down,cell gain with vemurafenib,lactate per cell with vemurafenib,call
HBS1L (GeneID 10767),0.51,0.4,inactive
HAUS4 (GeneID 54930),0.59,1.1,inactive
MIR1915HG (GeneID 399726),0.48,0.78,inactive
SERPINB12 (GeneID 89777),0.72,1.07,inactive
FOXA3 (GeneID 3171),0.88,0.66,inactive
SPACA4 (GeneID 171169),0.31,1.9,inactive
HEXIM2 (GeneID 124790),0.52,1.29,inactive
SRD5A3 (GeneID 79644),0.79,0.58,inactive
CDC34 (GeneID 997),0.38,0.62,inactive
IHO1 (GeneID 339834),1.08,1.07,inactive
ZNF225 (GeneID 7768),1.02,0.72,inactive
GYPE (GeneID 2996),0.44,1.25,inactive
ZNF404 (GeneID 342908),0.79,1,inactive
OR10A6 (GeneID 390093),0.77,1.06,inactive
ADAD1 (GeneID 132612),0.91,0.7,inactive
LYRM1 (GeneID 57149),0.77,1.12,inactive
ALMS1 (GeneID 7840),0.15,1.42,inactive
GLB1L (GeneID 79411),0.85,0.62,inactive
NEURL3 (GeneID 93082),0.97,0.68,inactive
LTO1 (GeneID 220064),0.41,1.84,inactive
ROPN1L (GeneID 83853),0.29,0.84,inactive
TNS4 (GeneID 84951),0.59,1.19,inactive
CITED1 (GeneID 4435),0.54,0.74,inactive
ADAMTS18 (GeneID 170692),0.42,1.17,inactive
GCLC (GeneID 2729),0.47,1.21,inactive
CTPS2 (GeneID 56474),1.02,0.58,inactive
TSPAN2 (GeneID 10100),0.42,1.98,inactive
PPP4R3A (GeneID 55671),0.68,0.8,inactive
BRCC3 (GeneID 79184),0.55,0.82,inactive
RCBTB2 (GeneID 1102),0.94,0.96,inactive
CCL2 (GeneID 6347),0.2,-0.07,active
SGCE (GeneID 8910),0.61,0.64,inactive
UCP2 (GeneID 7351),0.56,0.42,inactive
CAMSAP3 (GeneID 57662),0.41,1.22,inactive
MAP3K7 (GeneID 6885),0.58,0.3,active
TRAF4 (GeneID 9618),1.02,0.59,inactive
LGR5 (GeneID 8549),1.12,0.42,inactive
PP2D1 (GeneID 151649),0.88,0.52,inactive
CDK5RAP3 (GeneID 80279),0.38,0.78,inactive
AEBP1 (GeneID 165),0.82,1,inactive
TRIM74 (GeneID 378108),0.84,0.82,inactive
ATP5F1C (GeneID 509),0.93,1.24,inactive
UBAP1 (GeneID 51271),0.87,0.63,active
ATF7IP2 (GeneID 80063),-0.02,0.19,active
NXF1 (GeneID 10482),0.28,1.66,inactive
GRAMD2B (GeneID 65983),0.3,1.16,inactive
NDEL1 (GeneID 81565),0.62,1.54,inactive
SOSTDC1 (GeneID 25928),0.78,2,inactive
